# Patent US20030170694A1, “Stabilized nucleic acids in gene and drug discovery and methods of use” (priority 2001, published 2003)
# At least one compound was matched to its structure with a doubt left.
# Columns and labels:
# [1] = tested on: E. coli cells transcribing antisense RNA to rplL and rplJ (AS-rplL/J); type: cell-based; conditions: statistically significant decrease in IC50 in the presence of inducer
# Description: Antibiotics of various chemical classes and modes of action were purchased from Sigma Chemicals (St. Louis, Mo.). Stock solutions were prepared by dissolving each antibiotic in an appropriate aqueous solution based on information provided by the manufacturer. The final working solution of each antibiotic contained no more than 0.2% (w/v) of any organic solvent. To determine their potency against a bacterial strain engineered for transcription of an antisense comprising a nucleotide sequence complementary to a proliferation-required 50S ribosomal protein, each antibiotic was serially diluted two-or three-fold in growth medium supplemented with the appropriate antibiotic for maintenance of the antisense construct. At least ten dilutions were prepared for each antibiotic. 25 μL aliquots of each dilution were transferred to discrete wells of a 384-well microplate (the assay plate) using a multi-channel pipette. Quadruplicate wells were used for each dilution of an antibiotic under each treatment condition (plus and minus inducer). Each assay plate contained twenty wells for cell growth controls (growth medium replacing antibiotic), ten wells for each treatment (plus and minus inducer, in this example IPTG). Assay plates were usually divided into the two treatments: half the plate containing induced cells and an appropriate concentrations of inducer (in this example IPTG) to maintain the state of induction, the other half containing non-induced cells in the absence of IPTG.
# Cells for the assay were prepared as follows. Bacterial cells containing a construct, from which transcription of antisense nucleic acid comprising a nucleotide sequence complementary to rplL and rplJ (AS-rplL/J), which encode proliferation-required 50S ribosomal subunit proteins, is inducible in the presence of IPTG, were grown into exponential growth (OD600 0.2 to 0.3) and then diluted 1:100 into fresh medium containing either 400 μM or 0 μM inducer (IPTG). These cultures were incubated at 37° C. for 2.5 hr. After a 2.5 hr incubation, induced and non-induced cells were respectively diluted into an assay medium at a final OD600 value of 0.0004. […] The plate was then loaded into a plate reader, incubated at constant temperature, and cell growth was monitored in each well by the measurement of light scattering at 595 nm. Growth was monitored every 5 minutes until the cell culture attained a stationary growth phase. For each concentration of antibiotic, a percentage inhibition of growth was calculated at the time point corresponding to mid-exponential growth for the associated control wells (no antibiotic, plus or minus IPTG). For each antibiotic and condition (plus or minus IPTG), a plot of percent inhibition versus log of antibiotic concentration was generated and the IC50 determined.
# [2] = tested on: E. coli transformed with IPTG-inducible antisense clones; experiment: Cell-based assay of antibiotic sensitivity in E. coli transcribing non-stabilized antisense RNA
# From the text: The effectiveness of the above cell-based assays in which the level or activity of a gene product required for proliferation was reduced was validated using constructs transcribing a non-stabilized antisense RNA to the proliferation required E. coli genes rplL, rplJ and rplW encoding ribosomal proteins L7/L12, L10 and L23 respectively. These proteins are essential components of the protein synthesis apparatus of the cell and as such are required for proliferation. Constructs transcribing antisense RNA to several other genes (elaD, visC, yohH, and atpE/B), the products of which are not involved in protein synthesis were used for comparison.
# First, pLex5BA (Krause et al., J. Mol. Biol. 274: 365 (1997), the disclosure of which is incorporated herein by reference in its entirety) vectors containing antisense constructs to either rplW or to elaD were introduced into separate E. coli cell populations. Vector introduction is a technique well known to those of ordinary skill in the art. The vectors of this example contain IPTG inducible promoters that drive the transcription of the antisense RNA in the presence of the inducer. However, those skilled in the art will appreciate that other inducible promoters may also be used. Antisense clones to genes encoding different ribosomal proteins or to genes encoding proteins that are not involved in protein synthesis were utilized to test the effect of antisense transcription on cell sensitivity to the antibiotics known to bind to ribosomal proteins and inhibit protein synthesis. […]
# The cell populations containing vectors producing AS-elaD or AS-rplW were exposed to a range of IPTG concentrations in liquid medium to obtain the growth inhibitory dose curve for each clone (FIG. 5). First, seed cultures were grown to a particular turbidity measured by the optical density (OD) of the growth solution. […] The cells were grown for up to 15 hours and the extent of growth was determined by measuring the optical density of the cultures at 600 nm. […]
SMILES,Sensitivity (increased sensitivity observed in the presence of IPTG) [1],sensitivity of clone to the antibiotic ([2]; clone transcribing antisense to rplL and rplJ (AS-rplL/J)),"sensitivity of cells to the antibiotic ([2]; cells expressing AS-atpB/E, AS-visC, AS-elaD, AS-yohH)","sensitivity of cells to the antibiotic ([2]; cells transcribing AS-rplL or AS-rplW, compared to AS-elaD cells)"
C[C@H]1c2cccc(O)c2C(=O)C2=C(O)[C@]3(O)C(=O)C(C(N)=O)=C(O)[C@@H](N(C)C)[C@@H]3[C@@H](O)[C@@H]21 [Doxycycline],Yes,–,–,–
CN(C)c1ccc(O)c2c1C[C@H]1C[C@H]3[C@H](N(C)C)C(O)=C(C(N)=O)C(=O)[C@@]3(O)C(O)=C1C2=O [Minocycline],Yes,–,–,–
CC1COc2c(N3CCN(C)CC3)c(F)cc3c(=O)c(C(=O)O)cn1c23 (stereo not shown) [Ofloxacin],No,does not show increased sensitivity,–,–
CN(C)[C@@H]1C(O)=C(C(N)=O)C(=O)[C@@]2(O)C(O)=C3C(=O)c4c(O)cccc4[C@@](C)(O)[C@H]3C[C@@H]12 [Tetracycline],Yes,–,did not show the same increased sensitivity,increased sensitivity
